This list holds what a sample rich in strong results left over.
Each compound was assayed on M. mycetomatis strain mm55. Conditions: m. mycetomatis hyphae, 96 h, 2 µM.
For `CN1C(=O)CN=C(c2ccccc2)c2cc(Cl)ccc21` [ONC0003532, diazepam], the “% viability” value was 117.1%.

From article PMC12670160, “A drug-repurposing screen of FDA- and EMA-approved drugs identifies two NF-κB inhibitors active against eumycetoma” (Journal of Antimicrobial Chemotherapy, 2025)
